{"sequences": {"note": "By UniProt entry, the sequences of proteins in these tests, tags left out.", "UniProt Q9H814": "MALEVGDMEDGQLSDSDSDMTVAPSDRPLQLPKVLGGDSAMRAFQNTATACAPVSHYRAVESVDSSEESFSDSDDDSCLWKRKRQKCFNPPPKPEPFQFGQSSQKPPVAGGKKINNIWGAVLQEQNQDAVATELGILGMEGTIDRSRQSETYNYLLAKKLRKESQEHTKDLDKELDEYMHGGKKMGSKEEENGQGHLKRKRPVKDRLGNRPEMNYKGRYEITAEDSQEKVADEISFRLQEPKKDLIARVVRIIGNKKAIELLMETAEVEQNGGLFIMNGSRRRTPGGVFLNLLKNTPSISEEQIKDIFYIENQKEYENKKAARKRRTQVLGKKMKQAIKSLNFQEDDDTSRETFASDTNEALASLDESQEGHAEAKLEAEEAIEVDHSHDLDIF"}, "source": "paper PMC12823420", "biological_target": "GFP–UAP56 (endogenously tagged eGFP–3C–DDX39B) (human (endogenous in K562)) (UniProt Q13838)", "assay": "affinity purification with mass spectrometry; GFP-Trap IP from benzonase-treated nuclear lysate of GFP–UAP56 K562 cells against WT K562; on-bead digest, MS", "note": "These are yes or no findings as the source states them, for the method shown. Binding seen in cells or lysates may run through a third protein. These calls come from enrichment with a bait or labelling near it, and not all partners need be listed.", "data": [{"substance": "endogenous PHAX (K562) (from UniProt Q9H814 1-394)", "values": [{"measurement": "binding", "result": "binds"}]}]}
